# Assay results taken from US20070134236A1.
# The chains behind the UniProt entries cited, without tags or fusion partners. Residues count along the entry.
# UniProt Q62401, residues 23-104: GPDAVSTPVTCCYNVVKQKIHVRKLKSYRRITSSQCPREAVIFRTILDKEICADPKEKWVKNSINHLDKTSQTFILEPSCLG
# UniProt P10148, residues 24-148: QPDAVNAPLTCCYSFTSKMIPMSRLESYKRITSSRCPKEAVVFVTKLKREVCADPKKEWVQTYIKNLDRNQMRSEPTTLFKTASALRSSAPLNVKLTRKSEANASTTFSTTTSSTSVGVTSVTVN
# Results are given in words; binding and its absence hold for the method and conditions named. Some entries that bind do so weakly or less than the wild type.
# How the values were obtained:
# [1] = biological target: primate MCP-1 (cynomolgus and rhesus) (UniProt P61274); experiment: ELISA on plate-coated primate MCP-1, anti-human IgG-HRP; y axis unlabelled, OD 405 nm per paragraph 382
# [2] = biological target: primate MCP-1 (cynomolgus and rhesus) (UniProt P61274); experiment: ELISA, 50 ng MCP-1 per well
# [3] = biological target: primate MCP-1 (cynomolgus and rhesus) (UniProt P61274); experiment: ELISA, antigen immobilized, 293-EBNA transfectants
# [4] = biological target: primate MCP-1 (cynomolgus and rhesus) (UniProt P61274); experiment: ELISA
# [5] = biological target: primate MCP-1 (cynomolgus and rhesus) (UniProt P61274); experiment: ELISA, FIG. 14
# [6] = biological target: human MCP-1 (human) (UniProt P13500); experiment: summary of Tables 3 and 5 (ELISA)
# [7] = biological target: human MCP-1 (human) (UniProt P13500); experiment: ELISA, hybridoma supernatant
# [8] = biological target: murine MCP-5 (mouse) (UniProt Q62401); experiment: ELISA, purified mAb 10 µg/ml
# [9] = biological target: murine MCP-3 (mouse) (UniProt Q03366); experiment: ELISA, purified mAb 10 µg/ml
# [10] = biological target: human MCP-1 (human) (UniProt P13500); experiment: ELISA, purified mAb 10 µg/ml
# [11] = biological target: murine MCP-1 (JE) (mouse) (UniProt P10148); experiment: ELISA, purified mAb 10 µg/ml
# [12] = biological target: primate MCP-1 (cynomolgus and rhesus) (UniProt P61274); experiment: ELISA, mAb 10 µg/ml on synthetic cynomolgus and rhesus MCP-1
binding [1],binding [2],binding [3],binding [4],binding [5],binding [6],binding [7],binding [8],binding [9],binding [10],binding [11],binding [12],Binder
binds,binds,binds,binds,binds,,,,,,,,"humanized 11K2 H1-L1 (antibody, human IgG1, kappa, V domains shown) VH: QVQLVQSGAEVKKPGSSVKVSCKASGLNIKDTYMHWVRQAPGQGLEWIGRIDPANGNTKFDPKFQGRATITADTSTSTAYMELSSLRSEDTAVYYCARGVFGFFDYWGQGTTVTVSS VL: DIQMTQSPSSLSASVGDRVTITCKATEDIYNRLAWYQQKPGKAPKLLISGATSLETGVPSRFSGSGSGKDYTLTISSLQPEDFATYYCQQFWSAPYTFGGGTKVEIKR"
binds,binds,binds,binds,binds,,,,,,,,"humanized 11K2 H2-L1 (antibody, human IgG1, kappa, V domains shown) VH: QVQLVQSGAEVKKPGSSVKVSCKASGLTISDTYMHWVRQAPGQGLEWMGRIDPANGNTKFDPKFQGRVTITADTSTSTAYMELSSLRSEDTAVYYCARGVFGFFDYWGQGTTVTVSS VL: DIQMTQSPSSLSASVGDRVTITCKATEDIYNRLAWYQQKPGKAPKLLISGATSLETGVPSRFSGSGSGKDYTLTISSLQPEDFATYYCQQFWSAPYTFGGGTKVEIKR"
binds,binds,,binds,binds,,,,,,,,"chimeric 11K2 antibody (antibody, human IgG1, kappa, V domains shown) VH: EVQLQQSGAELVKAGASVKLSCPASGLNIKDTYMHWVKQRPEQGLEWIGRIDPANGNTKFDPKFQGKATITADTSSNTAYLQLSSLTSEDTAVYYCARGVFGFFDYWGQGTTLTVSS VL: DIQMTQSSSSFSVSLGDRVTITCKATEDIYNRLAWYQQKPGSAPRLLISGATSLETGVPSRFSGSGSGKDYTLSITSLQTEDVATYYCQQFWSAPYTFGGGTKLEIKR"
,,,,,binds,binds,binds,binds,binds,binds,,"monoclonal antibody 6I5 (antibody, mouse IgG1, V domains shown) VH: EVQLQQSGAELVKAGASVKLSCPASGLNIKDTYMHWVKQRPEQGLEWIGRIDPANGNTKFDPKFQGKATITADTSSNTAYLQLSSLTSEDTAVYYCARGVFGFFDYWGQGTTLTVSS VL: DIQMTQSSSSFSVSLGDRVTITCKATEDIYNRLAWYQQKPGSAPRLLISGATSLETGVPSRFSGSGSGKDYTLSITSLQTEDVATYYCQQFWSAPYTFGGGTKLEIK"
,,,,,binds,binds,binds,binds,binds,binds,,"monoclonal antibody 6D21 (antibody, mouse IgG1, V domains shown) VH: EVQLQQSGAELVKAGASVKLSCPASGLNIKDTYMHWVKQRPEQGLEWIGRIDPANGNTKFDPKFQGKATITADTSSNTAYLQLSSLTSEDTAVYYCARGVFGFFDYWGQGTTLTVSS VL: DIQMTQSSSSFSVSLGDRVTITCKATEDIYNRLAWYQQKPGSAPRLLISGATSLETGVPSRFSGSGSGKDYTLSITSLQTEDVATYYCQQFWSAPYTFGGGTKLEIK"
,,,,,binds,binds,binds,binds,binds,binds,,"monoclonal antibody 7H1 (antibody, mouse IgG1, V domains shown) VH: EVQLQQSGAELVKAGASVKLSCPASGLNIKDTYMHWVKQRPEQGLEWIGRIDPANGNTKFDPKFQGKATITADTSSNTAYLQLSSLTSEDTAVYYCARGVFGFFDYWGQGTTLTVSS VL: DIQMTQSSSSFSVSLGDRVTITCKATEDIYNRLAWYQQKPGSAPRLLISGATSLETGVPSRFSGSGSGKDYTLSITSLQTEDVATYYCQQFWSAPYTFGGGTKLEIK"
,,,,,,,,,,,binds,"mouse monoclonal antibody 11K2 (antibody, V domains shown) VH: EVQLQQSGAELVKAGASVKLSCPASGLNIKDTYMHWVKQRPEQGLEWIGRIDPANGNTKFDPKFQGKATITADTSSNTAYLQLSSLTSEDTAVYYCARGVFGFFDYWGQGTTLTVSS VL: DIQMTQSSSSFSVSLGDRVTITCKATEDIYNRLAWYQQKPGSAPRLLISGATSLETGVPSRFSGSGSGKDYTLSITSLQTEDVATYYCQQFWSAPYTFGGGTKLEIK"
,,,,,binds,binds,binds,binds,binds,binds,,"monoclonal antibody 4N4 (antibody, mouse IgG1, V domains shown) VH: EVQLQQSGAELVKAGASVKLSCPASGLNIKDTYMHWVKQRPEQGLEWIGRIDPANGNTKFDPKFQGKATITADTSSNTAYLQLSSLTSEDTAVYYCARGVFGFFDYWGQGTTLTVSS VL: DIQMTQSSSSFSVSLGDRVTITCKATEDIYNRLAWYQQKPGSAPRLLISGATSLETGVPSRFSGSGSGKDYTLSITSLQTEDVATYYCQQFWSAPYTFGGGTKLEIK"
,,,,,binds,binds,binds,binds,binds,binds,,"monoclonal antibody 5A13 (antibody, mouse IgG1, V domains shown) VH: EVQLQQSGAELVKAGASVKLSCPASGLNIKDTYMHWVKQRPEQGLEWIGRIDPANGNTKFDPKFQGKATITADTSSNTAYLQLSSLTSEDTAVYYCARGVFGFFDYWGQGTTLTVSS VL: DIQMTQSSSSFSVSLGDRVTITCKATEDIYNRLAWYQQKPGSAPRLLISGATSLETGVPSRFSGSGSGKDYTLSITSLQTEDVATYYCQQFWSAPYTFGGGTKLEIK"
